# Data as given in the supplement of paper PMC8728848.
# The other results are listed elsewhere or left out.
# Experiments:
# Assay in all cases: glycan array binding signal (z-score within array); higher = stronger binding
# Conditions in all cases: glycan notation: IUPAC condensed, linker removed
# [1] = molecular target: Neu5Ac(a2-6)Gal(b1-4)GlcNAc(b1-2)Man(a1-3)[Man(a1-6)]Man(b1-4)GlcNAc(b1-4)GlcNAc
# How it was run: (§1)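 Columns mapping to the same glycan were averaged after glycan names were converted to IUPAC-condensed notation. The data come from 3228 arrays in the Consortium for Functional Glycomics database, limited to those with an available protein sequence. Binding is reported as a within-array Z-score averaged across arrays of one protein sequence and across linkers.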
# [2] = molecular target: Neu5Ac(a2-6)Gal(b1-4)GlcNAc(b1-2)Man(a1-3)[Neu5Ac(a2-3)Gal(b1-4)GlcNAc(b1-2)Man(a1-6)]Man(b1-4)GlcNAc(b1-4)GlcNAc
# How it was run: as §1
# [3] = molecular target: Neu5Ac(a2-6)Gal(b1-4)GlcNAc(b1-2)Man(a1-3)[Neu5Ac(a2-6)Gal(b1-4)GlcNAc(b1-2)Man(a1-6)]Man(b1-4)GlcNAc(b1-4)GlcNAc
# How it was run: as §1
# [4] = molecular target: Neu5Ac(a2-6)Gal(b1-4)GlcNAc(b1-2)Man(a1-3)[Neu5Ac(a2-6)Gal(b1-4)GlcNAc(b1-2)Man(a1-6)]Man(b1-4)GlcNAc(b1-4)[Fuc(a1-6)]GlcNAc
# How it was run: as §1
# [5] = molecular target: Neu5Ac(a2-6)Gal(b1-4)GlcNAc(b1-2)Man(a1-6)Man(b1-4)GlcNAc(b1-4)GlcNAc
# How it was run: as §1
# [6] = molecular target: Neu5Ac(a2-6)Gal(b1-4)GlcNAc(b1-2)Man(a1-6)[Gal(b1-4)GlcNAc(b1-2)Man(a1-3)]Man(b1-4)GlcNAc(b1-4)GlcNAc
# How it was run: as §1
# [7] = molecular target: Neu5Ac(a2-6)Gal(b1-4)GlcNAc(b1-2)Man(a1-6)[GlcNAc(b1-2)Man(a1-3)]Man(b1-4)GlcNAc(b1-4)GlcNAc
# How it was run: as §1
# [8] = molecular target: Neu5Ac(a2-6)Gal(b1-4)GlcNAc(b1-2)Man(a1-6)[Man(a1-3)]Man(b1-4)GlcNAc(b1-4)GlcNAc
# How it was run: as §1
# [9] = molecular target: Neu5Ac(a2-6)Gal(b1-4)GlcNAc(b1-2)[Neu5Ac(a2-6)Gal(b1-4)GlcNAc(b1-4)]Man(a1-3)[GlcNAc(b1-4)][Neu5Ac(a2-6)Gal(b1-4)GlcNAc(b1-2)[Neu5Ac(a2-6)Gal(b1-4)GlcNAc(b1-6)]Man(a1-6)]Man(b1-4)GlcNAc(b1-4)GlcNAc
# How it was run: as §1
# [10] = molecular target: Neu5Ac(a2-6)Gal(b1-4)GlcNAc(b1-2)[Neu5Ac(a2-6)Gal(b1-4)GlcNAc(b1-4)]Man(a1-3)[GlcNAc(b1-4)][Neu5Ac(a2-6)Gal(b1-4)GlcNAc(b1-4)Man(a1-6)]Man(b1-4)GlcNAc(b1-4)GlcNAc
# How it was run: as §1
# [11] = molecular target: Neu5Ac(a2-6)Gal(b1-4)GlcNAc(b1-2)[Neu5Ac(a2-6)Gal(b1-4)GlcNAc(b1-6)]Man(a1-6)[Neu5Ac(a2-6)Gal(b1-4)GlcNAc(b1-2)Man(a1-3)][GlcNAc(b1-4)]Man(b1-4)GlcNAc(b1-4)GlcNAc
# How it was run: as §1
# [12] = molecular target: Neu5Ac(a2-6)Gal(b1-4)GlcNAc(b1-3)Gal(b1-3)GlcNAc
# How it was run: as §1
# [13] = molecular target: Neu5Ac(a2-6)Gal(b1-4)GlcNAc(b1-3)Gal(b1-4)GlcNAc
# How it was run: as §1
# [14] = molecular target: Neu5Ac(a2-6)Gal(b1-4)GlcNAc(b1-3)Gal(b1-4)GlcNAc(b1-2)Man(a1-3)[Neu5Ac(a2-6)Gal(b1-4)GlcNAc(b1-3)Gal(b1-4)GlcNAc(b1-2)Man(a1-6)]GalNAc
# How it was run: as §1
# [15] = molecular target: Neu5Ac(a2-6)Gal(b1-4)GlcNAc(b1-3)Gal(b1-4)GlcNAc(b1-3)Gal(b1-4)GlcNAc
# How it was run: as §1
# [16] = molecular target: Neu5Ac(a2-6)Gal(b1-4)GlcNAc(b1-3)Gal(b1-4)GlcNAc(b1-3)Gal(b1-4)GlcNAc(b1-2)Man(a1-3)[Neu5Ac(a2-6)Gal(b1-4)GlcNAc(b1-3)Gal(b1-4)GlcNAc(b1-3)Gal(b1-4)GlcNAc(b1-2)Man(a1-6)]GalNAc
# How it was run: as §1
# [17] = molecular target: Neu5Ac(a2-6)Gal(b1-4)GlcNAc(b1-3)Gal(b1-4)GlcNAc(b1-3)GalNAc
# How it was run: as §1
# [18] = molecular target: Neu5Ac(a2-6)Gal(b1-4)GlcNAc(b1-3)Gal(b1-4)GlcNAc(b1-3)[Neu5Ac(a2-6)Gal(b1-4)GlcNAc(b1-3)Gal(b1-4)GlcNAc(b1-6)]GalNAc
# How it was run: as §1
# [19] = molecular target: Neu5Ac(a2-6)Gal(b1-4)GlcNAc(b1-3)Gal(b1-4)GlcNAc(b1-6)[Gal(b1-3)]GalNAc
# How it was run: as §1
# [20] = molecular target: Neu5Ac(a2-6)Gal(b1-4)GlcNAc(b1-3)Gal(b1-4)[Fuc(a1-3)]GlcNAc(b1-3)Gal(b1-4)[Fuc(a1-3)]GlcNAc
# How it was run: as §1
# [21] = molecular target: Neu5Ac(a2-6)Gal(b1-4)GlcNAc(b1-3)GalNAc
# How it was run: as §1
# [22] = molecular target: Neu5Ac(a2-6)Gal(b1-4)GlcNAc(b1-3)[Neu5Ac(a2-6)Gal(b1-4)GlcNAc(b1-6)]GalNAc
# How it was run: as §1
# [23] = molecular target: Neu5Ac(a2-6)Gal(b1-4)GlcNAc(b1-6)GalNAc
# How it was run: as §1
# [24] = molecular target: Neu5Ac(a2-6)Gal(b1-4)GlcNAc(b1-6)[Gal(b1-3)GlcNAc(b1-3)]Gal(b1-4)Glc
# How it was run: as §1
# [25] = molecular target: Neu5Ac(a2-6)Gal(b1-4)GlcNAc(b1-6)[Gal(b1-3)]GalNAc
# How it was run: as §1
# [26] = molecular target: Neu5Ac(a2-6)Gal(b1-4)GlcNAc6S
# How it was run: as §1
# [27] = molecular target: Neu5Ac(a2-6)GalNAc
# How it was run: as §1
# [28] = molecular target: Neu5Ac(a2-6)GalNAc(b1-4)GlcNAc
# How it was run: as §1
# [29] = molecular target: Neu5Ac(a2-6)GalNAc(b1-4)GlcNAc6S
# How it was run: as §1
# [30] = molecular target: Neu5Ac(a2-6)GlcNAc(b1-4)GlcNAc
# How it was run: as §1
# [31] = molecular target: Neu5Ac(a2-6)GlcNAc(b1-4)GlcNAc(b1-4)GlcNAc
# How it was run: as §1
binder,measurement,setting,value
LlpB (Pseudomonas fluorescens) (protein) MGSSHHHHHHSSGLVPRGSHMASSGFRIILFNSANNGTAILPPRNCLVAGQYLESPSKRYKLILEADGNLRLYDNGVPIWVADSSVPYTYVDNRPNTNLVTCFYMQGSAFLVDRVGSRTWATIGDWIDGAADRAYLQVQDDGNVVVVDGVPRWARFGFTPAALPNRGVFYPDHGTGPLPSFPVWSWTF,glycan array binding signal (z-score),[1],2.88
same,glycan array binding signal (z-score),[2],1.31
same,glycan array binding signal (z-score),[3],0.404
same,glycan array binding signal (z-score),[4],3.58
same,glycan array binding signal (z-score),[5],1.11
same,glycan array binding signal (z-score),[6],-1.46
same,glycan array binding signal (z-score),[7],0.268
same,glycan array binding signal (z-score),[8],-0.557
same,glycan array binding signal (z-score),[9],1.22
same,glycan array binding signal (z-score),[10],0.108
same,glycan array binding signal (z-score),[11],-0.232
same,glycan array binding signal (z-score),[12],-0.105
same,glycan array binding signal (z-score),[13],-0.332
same,glycan array binding signal (z-score),[14],2.6
same,glycan array binding signal (z-score),[15],-0.225
same,glycan array binding signal (z-score),[16],0.207
same,glycan array binding signal (z-score),[17],-0.312
same,glycan array binding signal (z-score),[18],-0.061
same,glycan array binding signal (z-score),[19],0.354
same,glycan array binding signal (z-score),[20],-0.376
same,glycan array binding signal (z-score),[21],0.312
same,glycan array binding signal (z-score),[22],0.97
same,glycan array binding signal (z-score),[23],-0.717
same,glycan array binding signal (z-score),[24],0.758
same,glycan array binding signal (z-score),[25],0.13
same,glycan array binding signal (z-score),[26],0.975
same,glycan array binding signal (z-score),[27],-0.867
same,glycan array binding signal (z-score),[28],-0.182
same,glycan array binding signal (z-score),[29],-1.96
same,glycan array binding signal (z-score),[30],-0.969
same,glycan array binding signal (z-score),[31],2.47

# Shown as tab-separated lines: entries from further up.
binder	measurement	setting	value
LlpB (Pseudomonas fluorescens) (protein) MGSSHHHHHHSSGLVPRGSHMASSGFRIILFNSANNGTAILPPRNCLVAGQYLESPSKRYKLILEADGNLRLYDNGVPIWVADSSVPYTYVDNRPNTNLVTCFYMQGSAFLVDRVGSRTWATIGDWIDGAADRAYLQVQDDGNVVVVDGVPRWARFGFTPAALPNRGVFYPDHGTGPLPSFPVWSWTF	glycan array binding signal (z-score)	[6]	-1.46
same	glycan array binding signal (z-score)	[7]	0.268
